In US10005829B2 (priority 2012, dated 2018) one finds isolated mass data, which are given here for two substances.

Strings that start with PEPTIDE1 are HELM notation: dots part the residues, brackets hold end groups and non-standard residues.

Data set [1] in a line: general procedure: Fmoc solid-phase peptide synthesis; Phenethylamine-BAL-PS resin. Particulars: whole synthesis, scale 0.100 mmol.
A short description of data set [2]: general procedure: Fmoc solid-phase peptide synthesis; 2-chlorotrityl chloride-PS-resin (C-terminal acids); Fmoc Rink-Amide-AM-PS-resin (carboxamides); BAL-AM-PS-resin loaded. Particulars: whole synthesis, scale 0.6 mmol.

In data set [1], “PEPTIDE1{[XpGlu].R.P.R.L.[dA].H.K.G.P.[XdNle].[XPea]}$$$$V2.0” returned an isolated mass of 37.0 mg.
On to “PEPTIDE1{[XpGlu].R.P.R.L.[dA].H.K.G.P.[XdNle].[dA].[dF]}$$$$V2.0”, for which the isolated mass in data set [2] is reported as 538.7 mg.
